Measured values reported in the supplement of paper PMC7666118.
This is one part of the list.

Protein sequences, listed by entry. Tags and fused reporters are not part of them. Lines headed by an entry give the natural chain unless they say otherwise; changes in a name come on top.
UniProt O60232: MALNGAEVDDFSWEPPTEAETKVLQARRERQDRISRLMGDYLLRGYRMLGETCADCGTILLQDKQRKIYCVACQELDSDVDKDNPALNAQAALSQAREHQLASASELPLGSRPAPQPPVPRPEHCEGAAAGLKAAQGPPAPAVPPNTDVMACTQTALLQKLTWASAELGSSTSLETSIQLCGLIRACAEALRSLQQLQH
UniProt O75528: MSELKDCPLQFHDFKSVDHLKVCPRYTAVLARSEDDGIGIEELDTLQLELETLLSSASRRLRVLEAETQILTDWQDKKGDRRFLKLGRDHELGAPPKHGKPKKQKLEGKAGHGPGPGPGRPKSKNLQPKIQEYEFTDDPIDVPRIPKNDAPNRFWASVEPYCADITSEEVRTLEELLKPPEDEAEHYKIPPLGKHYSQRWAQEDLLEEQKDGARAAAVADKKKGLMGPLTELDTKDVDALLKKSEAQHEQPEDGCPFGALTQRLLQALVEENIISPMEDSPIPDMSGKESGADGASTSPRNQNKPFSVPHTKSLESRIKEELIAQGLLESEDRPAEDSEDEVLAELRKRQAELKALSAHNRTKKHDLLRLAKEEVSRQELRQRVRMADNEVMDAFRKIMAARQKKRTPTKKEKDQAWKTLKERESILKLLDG
UniProt Q96GM5, whole entry: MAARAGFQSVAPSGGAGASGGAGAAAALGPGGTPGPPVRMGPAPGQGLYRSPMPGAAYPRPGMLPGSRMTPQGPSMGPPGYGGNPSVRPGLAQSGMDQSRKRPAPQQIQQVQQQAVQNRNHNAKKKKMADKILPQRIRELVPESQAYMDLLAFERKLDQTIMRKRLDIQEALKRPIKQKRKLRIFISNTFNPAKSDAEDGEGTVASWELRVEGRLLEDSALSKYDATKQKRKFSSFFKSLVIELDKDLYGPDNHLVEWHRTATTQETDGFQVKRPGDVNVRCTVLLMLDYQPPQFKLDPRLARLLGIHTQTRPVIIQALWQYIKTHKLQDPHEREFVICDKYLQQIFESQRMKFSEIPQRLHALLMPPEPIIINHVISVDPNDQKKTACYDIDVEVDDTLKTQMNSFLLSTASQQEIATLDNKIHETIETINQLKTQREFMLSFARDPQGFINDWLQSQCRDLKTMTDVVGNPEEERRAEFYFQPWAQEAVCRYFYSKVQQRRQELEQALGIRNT
UniProt O76061, whole entry: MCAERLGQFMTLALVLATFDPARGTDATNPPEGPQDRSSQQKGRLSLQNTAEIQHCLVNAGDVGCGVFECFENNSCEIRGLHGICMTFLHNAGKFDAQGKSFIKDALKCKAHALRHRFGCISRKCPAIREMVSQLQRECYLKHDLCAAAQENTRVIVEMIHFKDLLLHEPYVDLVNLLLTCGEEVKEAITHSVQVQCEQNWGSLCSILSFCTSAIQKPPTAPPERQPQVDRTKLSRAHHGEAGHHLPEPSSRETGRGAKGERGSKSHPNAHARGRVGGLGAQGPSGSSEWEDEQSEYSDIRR
UniProt Q9HB58: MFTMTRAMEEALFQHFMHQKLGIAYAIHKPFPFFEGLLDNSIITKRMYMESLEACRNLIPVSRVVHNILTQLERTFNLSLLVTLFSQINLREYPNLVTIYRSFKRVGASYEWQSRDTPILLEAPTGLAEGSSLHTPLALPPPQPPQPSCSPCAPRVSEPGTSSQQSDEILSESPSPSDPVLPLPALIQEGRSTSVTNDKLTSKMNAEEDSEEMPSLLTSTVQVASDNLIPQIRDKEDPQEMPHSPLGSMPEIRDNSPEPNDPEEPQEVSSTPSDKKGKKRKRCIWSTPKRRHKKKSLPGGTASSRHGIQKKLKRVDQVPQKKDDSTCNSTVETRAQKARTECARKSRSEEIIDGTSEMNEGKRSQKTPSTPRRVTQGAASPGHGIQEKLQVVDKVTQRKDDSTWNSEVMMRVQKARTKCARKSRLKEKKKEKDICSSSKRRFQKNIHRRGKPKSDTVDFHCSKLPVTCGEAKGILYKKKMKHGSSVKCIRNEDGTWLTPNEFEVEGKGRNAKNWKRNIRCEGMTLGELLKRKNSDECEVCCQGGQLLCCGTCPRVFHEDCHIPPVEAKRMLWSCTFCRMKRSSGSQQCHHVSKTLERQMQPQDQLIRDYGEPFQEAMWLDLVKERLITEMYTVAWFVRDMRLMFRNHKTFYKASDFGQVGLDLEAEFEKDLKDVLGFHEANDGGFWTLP
UniProt O15400: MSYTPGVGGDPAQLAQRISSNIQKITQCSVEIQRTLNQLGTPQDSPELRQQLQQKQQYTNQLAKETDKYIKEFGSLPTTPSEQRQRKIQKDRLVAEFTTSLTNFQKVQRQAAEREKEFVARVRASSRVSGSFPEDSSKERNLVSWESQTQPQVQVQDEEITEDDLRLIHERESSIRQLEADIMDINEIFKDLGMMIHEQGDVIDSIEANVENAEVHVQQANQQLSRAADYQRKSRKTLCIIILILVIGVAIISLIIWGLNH
UniProt Q92485: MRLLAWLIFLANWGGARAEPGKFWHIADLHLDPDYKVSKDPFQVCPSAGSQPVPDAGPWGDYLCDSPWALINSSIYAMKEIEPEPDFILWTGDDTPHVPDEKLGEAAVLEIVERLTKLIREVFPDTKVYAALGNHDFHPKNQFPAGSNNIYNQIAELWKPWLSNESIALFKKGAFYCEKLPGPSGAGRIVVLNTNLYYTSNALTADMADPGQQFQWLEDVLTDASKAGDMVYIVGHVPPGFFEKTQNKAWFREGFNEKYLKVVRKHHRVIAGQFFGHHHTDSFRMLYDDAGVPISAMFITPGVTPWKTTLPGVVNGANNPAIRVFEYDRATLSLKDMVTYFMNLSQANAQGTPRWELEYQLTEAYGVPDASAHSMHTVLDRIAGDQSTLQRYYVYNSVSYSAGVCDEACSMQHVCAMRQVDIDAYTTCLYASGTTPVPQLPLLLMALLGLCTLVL
UniProt Q9Y657, whole entry: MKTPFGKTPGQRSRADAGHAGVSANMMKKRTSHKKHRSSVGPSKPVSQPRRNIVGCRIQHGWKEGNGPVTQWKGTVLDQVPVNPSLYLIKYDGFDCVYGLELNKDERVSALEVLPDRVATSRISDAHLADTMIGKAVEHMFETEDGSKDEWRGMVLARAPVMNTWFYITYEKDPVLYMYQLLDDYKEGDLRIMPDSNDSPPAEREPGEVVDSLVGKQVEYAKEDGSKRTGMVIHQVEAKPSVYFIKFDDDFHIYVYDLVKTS
UniProt Q7KZF4: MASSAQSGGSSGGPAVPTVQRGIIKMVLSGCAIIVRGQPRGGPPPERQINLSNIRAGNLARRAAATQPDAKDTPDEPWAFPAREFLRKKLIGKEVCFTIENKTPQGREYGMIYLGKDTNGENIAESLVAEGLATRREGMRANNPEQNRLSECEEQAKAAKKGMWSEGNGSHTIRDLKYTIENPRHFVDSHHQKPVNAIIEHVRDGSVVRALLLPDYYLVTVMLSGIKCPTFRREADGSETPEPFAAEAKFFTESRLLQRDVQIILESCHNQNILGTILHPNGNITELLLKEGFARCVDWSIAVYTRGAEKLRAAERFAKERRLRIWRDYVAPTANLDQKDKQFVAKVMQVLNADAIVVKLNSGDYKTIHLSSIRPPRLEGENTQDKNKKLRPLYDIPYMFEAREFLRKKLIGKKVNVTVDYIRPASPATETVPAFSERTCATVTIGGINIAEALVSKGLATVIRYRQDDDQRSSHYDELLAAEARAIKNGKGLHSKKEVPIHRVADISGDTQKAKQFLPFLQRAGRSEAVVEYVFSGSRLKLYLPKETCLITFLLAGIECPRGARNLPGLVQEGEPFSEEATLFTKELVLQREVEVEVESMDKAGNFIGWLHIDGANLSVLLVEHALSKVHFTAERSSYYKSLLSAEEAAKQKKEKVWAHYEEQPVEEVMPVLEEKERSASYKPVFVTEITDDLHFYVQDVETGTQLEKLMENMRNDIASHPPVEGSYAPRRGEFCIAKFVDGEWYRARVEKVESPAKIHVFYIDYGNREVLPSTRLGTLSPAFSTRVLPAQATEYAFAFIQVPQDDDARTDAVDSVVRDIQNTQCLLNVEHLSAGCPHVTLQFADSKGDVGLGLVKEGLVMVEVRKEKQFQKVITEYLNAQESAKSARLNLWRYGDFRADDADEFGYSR
UniProt P62318, whole entry: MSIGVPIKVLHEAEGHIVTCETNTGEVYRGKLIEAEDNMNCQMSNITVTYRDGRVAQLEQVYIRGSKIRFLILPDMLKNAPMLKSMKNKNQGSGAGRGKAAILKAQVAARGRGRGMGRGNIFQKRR
UniProt O95210: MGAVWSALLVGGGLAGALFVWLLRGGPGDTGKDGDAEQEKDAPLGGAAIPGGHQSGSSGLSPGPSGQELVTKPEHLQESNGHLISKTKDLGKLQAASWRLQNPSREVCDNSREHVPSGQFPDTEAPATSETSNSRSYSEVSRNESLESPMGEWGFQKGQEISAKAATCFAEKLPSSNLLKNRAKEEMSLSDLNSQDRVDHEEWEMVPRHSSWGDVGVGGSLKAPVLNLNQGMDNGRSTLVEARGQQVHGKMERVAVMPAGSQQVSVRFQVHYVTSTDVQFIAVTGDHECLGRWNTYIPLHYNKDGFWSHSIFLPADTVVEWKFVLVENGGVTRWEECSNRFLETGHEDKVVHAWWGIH
UniProt P49842: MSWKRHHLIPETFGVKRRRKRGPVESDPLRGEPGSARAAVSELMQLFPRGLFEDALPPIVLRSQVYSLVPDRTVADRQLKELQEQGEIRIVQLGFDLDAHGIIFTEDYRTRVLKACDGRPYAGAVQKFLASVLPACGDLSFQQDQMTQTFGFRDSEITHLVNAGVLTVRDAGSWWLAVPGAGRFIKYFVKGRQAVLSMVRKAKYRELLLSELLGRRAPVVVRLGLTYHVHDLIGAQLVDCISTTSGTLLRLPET
UniProt O76094: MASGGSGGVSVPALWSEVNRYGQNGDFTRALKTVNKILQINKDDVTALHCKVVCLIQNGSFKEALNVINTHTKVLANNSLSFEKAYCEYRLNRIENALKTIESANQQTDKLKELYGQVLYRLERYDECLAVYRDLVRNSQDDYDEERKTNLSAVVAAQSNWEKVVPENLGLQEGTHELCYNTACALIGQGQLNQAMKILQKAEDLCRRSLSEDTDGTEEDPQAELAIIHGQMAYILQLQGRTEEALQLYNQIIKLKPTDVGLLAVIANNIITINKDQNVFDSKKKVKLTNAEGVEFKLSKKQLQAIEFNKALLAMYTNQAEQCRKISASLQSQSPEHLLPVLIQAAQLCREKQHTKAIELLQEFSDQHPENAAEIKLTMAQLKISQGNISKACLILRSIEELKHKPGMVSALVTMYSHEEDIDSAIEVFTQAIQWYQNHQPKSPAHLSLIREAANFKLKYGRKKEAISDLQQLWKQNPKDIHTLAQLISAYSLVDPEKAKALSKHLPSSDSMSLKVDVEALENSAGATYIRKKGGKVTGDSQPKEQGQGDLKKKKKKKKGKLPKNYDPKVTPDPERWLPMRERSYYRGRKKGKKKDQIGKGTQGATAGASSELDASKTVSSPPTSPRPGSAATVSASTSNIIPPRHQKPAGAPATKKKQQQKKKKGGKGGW
UniProt O60493, whole entry: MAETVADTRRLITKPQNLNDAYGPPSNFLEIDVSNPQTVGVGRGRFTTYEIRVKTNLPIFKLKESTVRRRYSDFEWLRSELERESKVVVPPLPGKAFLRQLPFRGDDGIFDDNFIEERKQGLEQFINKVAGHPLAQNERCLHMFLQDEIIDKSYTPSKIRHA
UniProt Q658P3: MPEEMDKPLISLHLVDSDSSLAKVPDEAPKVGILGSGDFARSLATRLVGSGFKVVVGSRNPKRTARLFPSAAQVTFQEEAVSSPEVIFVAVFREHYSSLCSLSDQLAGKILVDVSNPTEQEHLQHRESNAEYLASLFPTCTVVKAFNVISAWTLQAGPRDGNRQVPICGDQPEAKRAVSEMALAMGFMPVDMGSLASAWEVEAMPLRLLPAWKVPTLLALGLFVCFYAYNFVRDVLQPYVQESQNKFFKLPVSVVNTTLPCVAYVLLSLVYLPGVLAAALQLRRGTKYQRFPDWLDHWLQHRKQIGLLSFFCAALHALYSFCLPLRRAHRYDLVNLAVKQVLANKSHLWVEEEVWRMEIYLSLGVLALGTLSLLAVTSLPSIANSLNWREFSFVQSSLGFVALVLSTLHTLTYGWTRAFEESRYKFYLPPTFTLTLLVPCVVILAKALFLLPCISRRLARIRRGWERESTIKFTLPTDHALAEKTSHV
UniProt Q9Y3F4: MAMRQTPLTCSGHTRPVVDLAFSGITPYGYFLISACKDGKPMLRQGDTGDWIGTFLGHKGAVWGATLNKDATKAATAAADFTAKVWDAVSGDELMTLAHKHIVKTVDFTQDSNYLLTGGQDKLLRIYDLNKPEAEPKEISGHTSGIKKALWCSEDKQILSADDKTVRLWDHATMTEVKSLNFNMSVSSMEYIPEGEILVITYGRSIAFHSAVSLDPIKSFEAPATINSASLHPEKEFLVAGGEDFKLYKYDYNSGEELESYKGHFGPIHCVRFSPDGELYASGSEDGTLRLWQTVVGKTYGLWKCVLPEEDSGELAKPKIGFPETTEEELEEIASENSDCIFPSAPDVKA

Compound: COc1ccc(Cn2ccc3ccc(C(=O)NO)cc32)cc1
Assay: dose-dependent thermal stabilisation call (2D-TPP, DLPTP, 10% FDR) (binary (1 = stabilised)); higher = stabilised by the compound
Conditions: system: HL-60 intact cells; concentration range 0.04-10 µM

| Target | dose-dependent thermal stabilisation call |
| --- | --- |
| SPEN (UniProt Q96T58) | inactive: 0 |
| SPR (UniProt P35270) | active: 1 |
| SUMF2 (UniProt Q8NBJ7) | inactive: 0 |
| SSSCA1 (UniProt O60232) | inactive: 0 |
| SNX17 (UniProt Q15036) | inactive: 0 |
| TADA3L (UniProt O75528) | inactive: 0 |
| SMARCD1 (UniProt Q96GM5) | inactive: 0 |
| STAT5A (UniProt P42229) | inactive: 0 |
| STC2 (UniProt O76061) | inactive: 0 |
| SP110 (UniProt Q9HB58) | inactive: 0 |
| STK24 (UniProt Q9Y6E0) | inactive: 0 |
| SYPL1 (UniProt Q16563) | inactive: 0 |
| SREBF2 (UniProt Q12772) | inactive: 0 |
| STX7 (UniProt O15400) | inactive: 0 |
| SPCS3 (UniProt P61009) | inactive: 0 |
| SMPDL3B (UniProt Q92485) | inactive: 0 |
| SPIN1 (UniProt Q9Y657) | inactive: 0 |
| STK38L (UniProt Q9Y2H1) | inactive: 0 |
| SND1 (UniProt Q7KZF4) | inactive: 0 |

2 entries drawn at random from the list so far:

| Target | dose-dependent thermal stabilisation call |
| --- | --- |
| SP110 (UniProt Q9HB58) | inactive: 0 |
| SPR (UniProt P35270) | active: 1 |

Next records:

| Target | dose-dependent thermal stabilisation call |
| --- | --- |
| SNRPD3 (UniProt P62318) | inactive: 0 |
| SNRK (UniProt Q9NRH2) | inactive: 0 |
| SPRY1 (UniProt O43609) | inactive: 0 |
| STAM (UniProt Q92783) | inactive: 0 |
| STBD1 (UniProt O95210) | inactive: 0 |
| SLFN11 (UniProt Q7Z7L1) | inactive: 0 |
| STK19 (UniProt P49842) | inactive: 0 |
| TACC1 (UniProt O75410) | inactive: 0 |
| SRPK2 (UniProt P78362) | inactive: 0 |
| SRP72 (UniProt O76094) | inactive: 0 |
| SMG1 (UniProt Q96Q15) | inactive: 0 |
| SNX3 (UniProt O60493) | inactive: 0 |
| ST6GAL1 (UniProt P15907) | inactive: 0 |
| STEAP3 (UniProt Q658P3) | inactive: 0 |
| STAMBP (UniProt O95630) | inactive: 0 |
| ST13 (UniProt P50502) | inactive: 0 |
| SYK (UniProt P43405) | inactive: 0 |
| STRAP (UniProt Q9Y3F4) | inactive: 0 |
